These are yes or no findings as the source states them, for the method shown. Some results given as binding are weak or reduced against the parent protein; the word gives no strength.

Experiment [1] concerns the target T1, biotinylated GW-Q6 peptide.
T1 sequence (peptide, biotin (position not stated)): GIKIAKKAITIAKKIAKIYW
In words: pull-down; biotinylated GW-Q6 immobilised on streptavidin-conjugated beads (2 hrs, 4°C) in PC buffer (20 mM Hepes, pH 7.4, 0.05 M NaCl), no sarkosyl; mixed with recombinant OprI overnight at 4°C, washed three times; non-reducing SDS-PAGE/Coomassie blue staining; both purified.

Experiment [2] deals with T1, biotinylated GW-Q6 peptide. In words: pull-down; biotinylated GW-Q6 immobilised on streptavidin-conjugated beads (2 hrs, 4°C) in sarkosyl solution (10 mM sodium phosphate, pH 7.4, 0.15 M NaCl, 0.075% sodium N-dodecanoylsarcosinate); mixed with recombinant OprI overnight at 4°C, washed three times; non-reducing SDS-PAGE/Coomassie blue staining; both purified.

Regarding “recombinant OprI (from UniProt P11221 20-83)”, the binding entry in experiment [1] is “binds weakly”; in experiment [2] it was “binds”.

The values are drawn from publication PMC5058510.
